# Test results: US10993916B2, “Crystalline microparticles of a beta-agonist coated with a fatty acid” (Chiesi Farmaceutici S.p.A., priority 2011, dated 2021)
# Assay: Particle size via laser diffraction
# Type: physicochemical
# Conditions: powders dispersed in Span85:cyclohexane 0.1% w/v
# Experimental: Particle size via laser diffraction. Particle size distributions were measured by laser diffraction (Spraytec® S, Malvern Instruments, Worcestershire, UK). The powders were dispersed in Span85:cyclohexane 0.1% w/v.
compound,measurement,value
"COc1ccc(CC(C)NCC(O)c2ccc(O)c(NC=O)c2)cc1.COc1ccc(CC(C)NCC(O)c2ccc(O)c(NC=O)c2)cc1.O.O.O=C(O)/C=C/C(=O)O (stereo not drawn) [FF raw material, formoterol fumarate dihydrate]",d(v0.1),0.62 μm
same,d(v0.5),1.69 μm
same,d(v0.9),3.27 μm
